Measurements taken from US6989242.

Experiments:
[1] = system: TR/CAR chimera (TRbeta A/B and C domains fused to CAR D, E and F domains); assay: activity in cells; details: JEG3; constitutive, over 50% of intact TR response; protein in cells; only the site is given
[2] = system: mCAR1 D27 (C-terminal deletion) + RXR (Mus musculus); assay: EMSA; details: transactivation abolished; protein in a lysate after overexpression; protein details: N-terminal epitope tag, COSM6 whole cell extract
[3] = system: mCAR1 D8 (AF-2 deletion) + RXR C-terminal deletion D8 (Mus musculus); assay: EMSA; details: transactivation abolished; protein in a lysate after overexpression; protein details: N-terminal epitope tag, COSM6 whole cell extract
[4] = system: mCAR1 E355A + RXR (Mus musculus); assay: EMSA; details: transactivation abolished; protein in a lysate after overexpression; protein details: N-terminal epitope tag, COSM6 whole cell extract
[5] = system: mCAR1 L353A + RXR (Mus musculus); assay: EMSA; details: transactivation abolished; protein in a lysate after overexpression; protein details: N-terminal epitope tag, COSM6 whole cell extract
[6] = target: T1, human CAR (cotransfected) (Homo sapiens) (UniProt Q14994); assay: activity in cells; details: 3 copies upstream of TK promoter, HepG2, charcoal-stripped serum; protein in cells; only the site is given
T1 sequence (limits assumed): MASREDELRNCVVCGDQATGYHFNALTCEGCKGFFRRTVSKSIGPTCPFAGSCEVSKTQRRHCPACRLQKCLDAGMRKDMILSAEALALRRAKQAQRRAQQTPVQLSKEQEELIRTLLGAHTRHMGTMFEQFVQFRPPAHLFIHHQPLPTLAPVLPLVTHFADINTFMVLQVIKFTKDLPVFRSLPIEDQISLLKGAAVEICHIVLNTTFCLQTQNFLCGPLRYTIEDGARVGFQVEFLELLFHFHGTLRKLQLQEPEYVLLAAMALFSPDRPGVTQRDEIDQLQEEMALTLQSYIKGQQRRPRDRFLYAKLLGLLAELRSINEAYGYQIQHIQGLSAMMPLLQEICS

[7] = system: T2, mCAR2 (cotransfected) (Mus musculus); assay: activity in cells; details: no transactivation; protein in cells; only the site is given
T2 sequence (looked up, limits assumed): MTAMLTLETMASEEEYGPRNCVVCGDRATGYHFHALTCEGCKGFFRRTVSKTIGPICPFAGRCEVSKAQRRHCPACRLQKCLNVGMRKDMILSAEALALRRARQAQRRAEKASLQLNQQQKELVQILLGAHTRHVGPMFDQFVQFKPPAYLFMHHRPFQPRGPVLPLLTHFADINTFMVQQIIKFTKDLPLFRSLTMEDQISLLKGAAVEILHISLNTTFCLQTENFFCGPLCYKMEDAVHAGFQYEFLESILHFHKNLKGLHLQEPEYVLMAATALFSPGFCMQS

Sequence	activity on this sequence [1]	binding result [2]	binding result [3]	binding result [4]	binding result [5]	activity on this sequence [6]	activity on this sequence [7]
AAAGGTAAGATCAGGGACGTGACCGCAG (double strand) [T3RE reporter element]	active						
GGGTAGGGTTCACCGAAAGTTCACTCG (double strand) [betaRARE (RARbeta2 promoter DR-5)]		no binding	binds	binds	binds	active	not active

For some of these results: A negative result means that nothing was seen under these conditions. For some of these results: Where a protein sequence is shown, tags need not be part of it. For some of these results: Where cells or extracts were used, other partners may take part. For some of these results: For at least one entry, the source does not settle the construct or the ends of the probe.
